According to article doi:10.1101/2021.06.17.448790:
Results are given in words; binding and its absence hold for the method and conditions named. Binding seen in cells or lysates may run through a third protein. Some results given as binding are weak or reduced against the parent protein; the word gives no strength. Sequences can lack the tags named with a protein.

Target: EphA1-P460L (Alzheimer's disease-associated P460L variant of EphA1), Myc-Flag-tagged (human) (UniProt P21709)
Test: cross-linking

binding: binds
B1: EphA1-P460L (Alzheimer's disease-associated P460L variant of EphA1), Myc-Flag-tagged (receptor, UniProt P21709 26-976)
chain: KEVTLMDTSKAQGELGWLLDPPKDGWSEQQQILNGTPLYMYQDCPMQGRRDTDHWLRSNWIYRGEEASRVHVELQFTVRDCKSFPGGAGPLGCKETFNLLYMESDQDVGIQLRRPLFQKVTTVAADQSFTIRDLVSGSVKLNVERCSLGRLTRRGLYLAFHNPGACVALVSVRVFYQRCPETLNGLAQFPDTLPGPAGLVEVAGTCLPHARASPRPSGAPRMHCSPDGEWLVPVGRCHCEPGYEEGGSGEACVACPSGSYRMDMDTPHCLTCPQQSTAESEGATICTCESGHYRAPGEGPQVACTGPPSAPRNLSFSASGTQLSLRWEPPADTGGRQDVRYSVRCSQCQGTAQDGGPCQPCGVGVHFSPGARGLTTPAVHVNGLEPYANYTFNVEAQNGVSGLGSSGHASTSVSISMGHAESLSGLSLRLVKKELRQLELTWAGSRPRSPGANLTYELHVLNQDEERYQMVLEPRVLLTELQPDTTYIVRVRMLTPLGPGPFSPDHEFRTSPPVSRGLTGGEIVAVIFGLLLGAALLLGILVFRSRRAQRQRQQRQRDRATDVDREDKLWLKPYVDLQAYEDPAQGALDFTRELDPAWLMVDTVIGEGEFGEVYRGTLRLPSQDCKTVAIKTLKDTSPGGQWWNFLREATIMGQFSHPHILHLEGVVTKRKPIMIITEFMENGALDAFLREREDQLVPGQLVAMLQGIASGMNYLSNHNYVHRDLAARNILVNQNLCCKVSDFGLTRLLDDFDGTYETQGGKIPIRWTAPEAIAHRIFTTASDVWSFGIVMWEVLSFGDKPYGEMSNQEVMKSIEDGYRLPPPVDCPAPLYELMKNCWAYDRARRPHFQKLQAHLEQLLANPHSLRTIANFDPRMTLRLPSLSGSDGIPYRTVSEWLESIRMKRYILHFHSAGLDTMECVLELTAEDLTQMGITLPGHQKRILCSIQGFKD
